# From the supplement of paper PMC12819154, “High-throughput peptide-centric local stability assay extends protein–ligand identification to membrane proteins, tissues and bacteria” (Nature Structural & Molecular Biology, 2025)
# Sequences of proteins named here, by UniProt entry; tags and fusion partners are left off. A change or cut given only in a name is not applied to a line headed by its entry.
# UniProt Q16352: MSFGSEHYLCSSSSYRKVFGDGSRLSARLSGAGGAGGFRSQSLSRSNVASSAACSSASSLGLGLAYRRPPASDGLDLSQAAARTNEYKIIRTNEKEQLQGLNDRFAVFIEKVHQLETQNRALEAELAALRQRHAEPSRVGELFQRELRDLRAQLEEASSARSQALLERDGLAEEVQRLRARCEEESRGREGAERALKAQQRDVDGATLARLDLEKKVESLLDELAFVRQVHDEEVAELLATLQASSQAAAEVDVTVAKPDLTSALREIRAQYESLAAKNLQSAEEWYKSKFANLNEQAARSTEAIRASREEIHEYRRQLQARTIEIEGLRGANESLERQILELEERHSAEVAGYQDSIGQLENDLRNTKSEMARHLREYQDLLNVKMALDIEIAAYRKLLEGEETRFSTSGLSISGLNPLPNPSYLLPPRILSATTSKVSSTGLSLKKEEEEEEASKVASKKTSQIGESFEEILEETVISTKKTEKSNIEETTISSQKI
# UniProt Q15691: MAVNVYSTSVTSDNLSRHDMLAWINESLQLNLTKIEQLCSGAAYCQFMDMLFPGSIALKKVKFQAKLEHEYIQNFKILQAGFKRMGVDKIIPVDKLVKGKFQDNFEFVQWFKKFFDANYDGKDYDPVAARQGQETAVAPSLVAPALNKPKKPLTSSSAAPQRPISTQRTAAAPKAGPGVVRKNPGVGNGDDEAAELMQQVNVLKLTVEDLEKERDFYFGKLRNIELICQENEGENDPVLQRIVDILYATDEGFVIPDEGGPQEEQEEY
# UniProt Q15436: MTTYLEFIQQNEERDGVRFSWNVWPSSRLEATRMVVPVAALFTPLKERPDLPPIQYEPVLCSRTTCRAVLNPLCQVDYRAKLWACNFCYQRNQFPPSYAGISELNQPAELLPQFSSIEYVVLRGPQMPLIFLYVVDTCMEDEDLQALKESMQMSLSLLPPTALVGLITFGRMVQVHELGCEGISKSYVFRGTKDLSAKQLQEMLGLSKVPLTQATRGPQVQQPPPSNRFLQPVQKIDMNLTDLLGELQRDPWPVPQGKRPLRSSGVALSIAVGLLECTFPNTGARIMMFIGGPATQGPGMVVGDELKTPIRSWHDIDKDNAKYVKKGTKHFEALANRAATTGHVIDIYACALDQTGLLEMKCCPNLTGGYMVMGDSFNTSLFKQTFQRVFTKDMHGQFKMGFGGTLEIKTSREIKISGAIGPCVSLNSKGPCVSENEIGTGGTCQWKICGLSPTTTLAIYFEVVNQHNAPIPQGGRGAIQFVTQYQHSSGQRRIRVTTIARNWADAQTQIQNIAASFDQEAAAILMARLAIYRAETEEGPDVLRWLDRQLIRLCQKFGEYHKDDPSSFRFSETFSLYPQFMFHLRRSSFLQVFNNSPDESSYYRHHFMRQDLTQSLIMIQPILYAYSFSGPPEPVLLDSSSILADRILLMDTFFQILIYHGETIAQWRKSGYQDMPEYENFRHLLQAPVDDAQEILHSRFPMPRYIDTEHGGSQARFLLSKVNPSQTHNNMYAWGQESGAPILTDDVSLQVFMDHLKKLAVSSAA
# UniProt Q16594, whole entry: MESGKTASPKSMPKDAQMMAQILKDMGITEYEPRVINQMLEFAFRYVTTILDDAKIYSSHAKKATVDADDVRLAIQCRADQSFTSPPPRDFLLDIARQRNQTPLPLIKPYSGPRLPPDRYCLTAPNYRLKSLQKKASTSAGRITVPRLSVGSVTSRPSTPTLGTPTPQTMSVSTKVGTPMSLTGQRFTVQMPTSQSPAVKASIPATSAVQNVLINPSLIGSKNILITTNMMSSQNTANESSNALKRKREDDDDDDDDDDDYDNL
# UniProt Q15390: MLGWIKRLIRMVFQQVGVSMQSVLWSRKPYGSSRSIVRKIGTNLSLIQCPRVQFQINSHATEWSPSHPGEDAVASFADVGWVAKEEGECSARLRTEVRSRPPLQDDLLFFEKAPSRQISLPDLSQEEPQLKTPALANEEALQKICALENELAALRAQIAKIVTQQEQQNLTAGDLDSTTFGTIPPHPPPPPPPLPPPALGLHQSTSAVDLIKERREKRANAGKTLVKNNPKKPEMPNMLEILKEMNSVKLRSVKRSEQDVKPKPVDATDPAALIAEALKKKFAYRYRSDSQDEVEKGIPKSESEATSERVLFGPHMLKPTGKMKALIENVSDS
# UniProt Q16576, whole entry: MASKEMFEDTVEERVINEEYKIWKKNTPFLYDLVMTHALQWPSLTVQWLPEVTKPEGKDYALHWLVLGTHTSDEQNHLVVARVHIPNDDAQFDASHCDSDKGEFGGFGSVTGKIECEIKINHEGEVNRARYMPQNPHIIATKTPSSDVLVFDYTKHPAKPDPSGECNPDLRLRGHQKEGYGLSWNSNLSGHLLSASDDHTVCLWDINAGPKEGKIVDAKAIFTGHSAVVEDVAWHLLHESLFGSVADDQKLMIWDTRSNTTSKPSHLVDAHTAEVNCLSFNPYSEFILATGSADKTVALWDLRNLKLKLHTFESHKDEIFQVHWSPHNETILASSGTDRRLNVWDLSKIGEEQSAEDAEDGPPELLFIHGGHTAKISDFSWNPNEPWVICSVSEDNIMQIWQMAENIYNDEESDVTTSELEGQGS
# UniProt Q16595: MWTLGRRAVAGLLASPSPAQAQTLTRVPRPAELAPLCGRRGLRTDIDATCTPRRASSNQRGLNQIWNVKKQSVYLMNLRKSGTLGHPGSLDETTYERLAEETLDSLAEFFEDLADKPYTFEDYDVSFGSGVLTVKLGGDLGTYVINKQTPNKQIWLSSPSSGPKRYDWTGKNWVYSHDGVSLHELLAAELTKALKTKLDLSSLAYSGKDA
# UniProt Q49A26: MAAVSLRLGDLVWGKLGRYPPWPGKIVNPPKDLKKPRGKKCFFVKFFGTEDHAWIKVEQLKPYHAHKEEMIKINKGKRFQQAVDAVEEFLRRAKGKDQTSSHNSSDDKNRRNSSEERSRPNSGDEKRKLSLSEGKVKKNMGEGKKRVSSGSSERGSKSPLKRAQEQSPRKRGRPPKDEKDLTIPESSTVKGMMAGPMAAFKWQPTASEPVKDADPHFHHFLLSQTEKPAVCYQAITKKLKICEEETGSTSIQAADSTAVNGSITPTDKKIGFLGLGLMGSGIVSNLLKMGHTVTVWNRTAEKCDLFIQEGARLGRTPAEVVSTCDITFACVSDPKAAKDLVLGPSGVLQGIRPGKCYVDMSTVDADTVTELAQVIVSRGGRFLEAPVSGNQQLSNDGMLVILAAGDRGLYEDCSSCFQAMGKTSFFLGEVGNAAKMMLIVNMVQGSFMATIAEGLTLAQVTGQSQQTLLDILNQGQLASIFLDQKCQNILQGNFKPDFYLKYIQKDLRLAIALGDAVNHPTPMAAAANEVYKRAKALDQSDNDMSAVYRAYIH
# UniProt Q15393: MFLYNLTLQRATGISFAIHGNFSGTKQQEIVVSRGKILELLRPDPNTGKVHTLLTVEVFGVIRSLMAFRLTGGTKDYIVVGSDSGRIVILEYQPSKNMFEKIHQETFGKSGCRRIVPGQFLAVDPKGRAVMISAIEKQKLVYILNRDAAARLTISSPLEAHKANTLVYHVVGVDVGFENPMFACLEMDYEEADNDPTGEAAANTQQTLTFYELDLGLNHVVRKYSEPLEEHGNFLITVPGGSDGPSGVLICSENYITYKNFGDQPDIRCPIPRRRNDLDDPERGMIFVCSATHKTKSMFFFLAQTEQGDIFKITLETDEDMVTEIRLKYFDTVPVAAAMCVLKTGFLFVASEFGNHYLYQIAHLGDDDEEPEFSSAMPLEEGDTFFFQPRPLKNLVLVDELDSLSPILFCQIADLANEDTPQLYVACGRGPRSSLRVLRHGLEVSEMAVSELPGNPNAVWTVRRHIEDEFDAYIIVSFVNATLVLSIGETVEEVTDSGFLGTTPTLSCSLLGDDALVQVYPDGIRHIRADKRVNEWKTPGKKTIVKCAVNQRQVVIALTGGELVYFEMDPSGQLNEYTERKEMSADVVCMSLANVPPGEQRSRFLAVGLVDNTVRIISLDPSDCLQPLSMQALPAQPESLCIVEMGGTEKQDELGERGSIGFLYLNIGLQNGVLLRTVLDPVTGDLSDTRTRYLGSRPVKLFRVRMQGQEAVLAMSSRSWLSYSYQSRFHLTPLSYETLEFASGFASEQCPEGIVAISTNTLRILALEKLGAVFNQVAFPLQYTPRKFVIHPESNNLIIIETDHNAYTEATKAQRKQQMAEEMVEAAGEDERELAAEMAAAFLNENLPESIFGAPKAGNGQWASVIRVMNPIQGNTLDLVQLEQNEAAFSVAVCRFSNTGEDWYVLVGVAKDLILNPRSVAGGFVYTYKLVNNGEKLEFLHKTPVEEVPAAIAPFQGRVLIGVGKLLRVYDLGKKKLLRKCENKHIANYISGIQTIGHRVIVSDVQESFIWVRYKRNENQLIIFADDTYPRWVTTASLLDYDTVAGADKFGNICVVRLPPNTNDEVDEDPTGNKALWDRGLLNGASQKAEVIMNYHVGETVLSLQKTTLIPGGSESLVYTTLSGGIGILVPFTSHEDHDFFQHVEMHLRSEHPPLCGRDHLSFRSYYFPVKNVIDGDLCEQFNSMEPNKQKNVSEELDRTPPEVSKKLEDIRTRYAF
# UniProt Q2VPK5: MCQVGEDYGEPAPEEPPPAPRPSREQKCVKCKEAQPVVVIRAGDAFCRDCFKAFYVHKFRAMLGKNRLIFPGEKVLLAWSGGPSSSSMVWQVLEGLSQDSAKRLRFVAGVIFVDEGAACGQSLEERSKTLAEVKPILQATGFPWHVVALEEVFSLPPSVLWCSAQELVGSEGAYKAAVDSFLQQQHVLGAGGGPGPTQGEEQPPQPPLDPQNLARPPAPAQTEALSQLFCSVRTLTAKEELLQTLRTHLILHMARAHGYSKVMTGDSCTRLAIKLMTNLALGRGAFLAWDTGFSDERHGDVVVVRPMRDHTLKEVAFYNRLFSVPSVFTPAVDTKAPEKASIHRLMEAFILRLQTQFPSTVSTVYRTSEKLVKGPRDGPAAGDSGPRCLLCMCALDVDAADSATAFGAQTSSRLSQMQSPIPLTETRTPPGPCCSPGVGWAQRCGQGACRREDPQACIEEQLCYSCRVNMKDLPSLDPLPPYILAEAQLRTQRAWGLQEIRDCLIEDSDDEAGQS
# UniProt Q15468: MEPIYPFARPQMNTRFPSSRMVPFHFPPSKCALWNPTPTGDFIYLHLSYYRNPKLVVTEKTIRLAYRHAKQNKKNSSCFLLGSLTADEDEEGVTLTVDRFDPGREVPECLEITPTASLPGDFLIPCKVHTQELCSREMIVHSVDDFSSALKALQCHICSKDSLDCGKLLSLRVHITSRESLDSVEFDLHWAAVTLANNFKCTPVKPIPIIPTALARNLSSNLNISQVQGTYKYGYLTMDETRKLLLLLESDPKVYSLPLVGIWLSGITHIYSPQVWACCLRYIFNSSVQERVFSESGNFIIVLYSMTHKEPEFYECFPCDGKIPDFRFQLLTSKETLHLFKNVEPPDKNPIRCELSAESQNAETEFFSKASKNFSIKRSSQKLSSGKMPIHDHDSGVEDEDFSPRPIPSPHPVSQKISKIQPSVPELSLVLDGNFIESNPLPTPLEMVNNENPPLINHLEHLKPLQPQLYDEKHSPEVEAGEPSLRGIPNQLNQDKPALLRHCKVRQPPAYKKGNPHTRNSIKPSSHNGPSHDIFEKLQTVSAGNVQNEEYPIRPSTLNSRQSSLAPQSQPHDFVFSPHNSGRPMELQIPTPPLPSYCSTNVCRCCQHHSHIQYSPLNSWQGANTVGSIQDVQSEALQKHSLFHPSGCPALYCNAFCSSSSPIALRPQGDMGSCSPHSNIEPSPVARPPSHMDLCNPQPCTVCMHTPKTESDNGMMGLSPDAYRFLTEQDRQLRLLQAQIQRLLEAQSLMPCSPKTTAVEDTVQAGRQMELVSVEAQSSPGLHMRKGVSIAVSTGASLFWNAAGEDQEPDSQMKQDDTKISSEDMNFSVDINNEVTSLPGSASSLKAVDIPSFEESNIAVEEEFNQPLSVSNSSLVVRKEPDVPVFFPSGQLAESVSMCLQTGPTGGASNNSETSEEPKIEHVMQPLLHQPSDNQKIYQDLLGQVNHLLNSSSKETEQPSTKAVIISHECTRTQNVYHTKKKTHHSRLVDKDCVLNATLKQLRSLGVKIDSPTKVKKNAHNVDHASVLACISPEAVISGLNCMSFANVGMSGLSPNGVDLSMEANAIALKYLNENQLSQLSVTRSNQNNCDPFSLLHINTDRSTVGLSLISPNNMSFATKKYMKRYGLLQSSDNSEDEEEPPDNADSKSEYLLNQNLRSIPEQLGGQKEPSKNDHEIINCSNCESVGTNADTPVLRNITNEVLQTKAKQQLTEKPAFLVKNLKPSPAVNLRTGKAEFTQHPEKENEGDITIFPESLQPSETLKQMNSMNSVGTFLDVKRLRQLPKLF
# Some of the results follow. Most entries show no effect beyond the scatter of the controls.
# Compound: CN[C@@H]1C[C@H]2O[C@@](C)([C@@H]1OC)n1c3ccccc3c3c4c(c5c6ccccc6n2c5c31)C(=O)NC4 [staurosporine]
# Test: log2 fold change of tryptic peptide abundance, ligand vs vehicle (limited proteolysis) (log2 ratio); higher = more trypsin-susceptible (destabilized)
# Details: ligand concentration: 20 uM; sample: K562 cleared lysate; digestion: 4 min, 22 C (HT-PELSA RT4min, Orbitrap Astral)
row,Target,log2 fold change
1,"UniProt Q16352 (peptide sequence: EYQDLLNVK, peptide start residue: 382)",-0.0563
2,"MAPRE1 (peptide sequence: LEHEYIQNFK, peptide start residue: 67) (UniProt Q15691)",0.447
3,"SEC23A (peptide sequence: FGEYHKDDPSSFR, peptide start residue: 557) (UniProt Q15436)",0.257
4,"TAF9 (peptide sequence: ATVDADDVR, peptide start residue: 64) (UniProt Q16594)",0.282
5,"MTFR1 (peptide sequence: KPEMPNMLEILK, peptide start residue: 232) (UniProt Q15390)",0.349
6,"RBBP7 (peptide sequence: TVALWDLR, peptide start residue: 296) (UniProt Q16576)",-0.192
7,"FXN (peptide sequence: GLNQIWNVK, peptide start residue: 61) (UniProt Q16595)",0.711
8,"GLYR1 (peptide sequence: FQQAVDAVEEFLRR, peptide start residue: 79) (UniProt Q49A26)",-0.127
9,"SF3B3 (peptide sequence: LVYILNR, peptide start residue: 140) (UniProt Q15393)",-0.24
10,"UniProt Q2VPK5 (peptide sequence: EVAFYNR, peptide start residue: 314)",0.218
11,"STIL (peptide sequence: NITNEVLQTK, peptide start residue: 1197) (UniProt Q15468)",-0.17
